Experimental data: PMC3347614 (Acta Naturae, 2011)

The chains behind the UniProt entries cited, without tags or fusion partners.
UniProt P0AES4, whole entry: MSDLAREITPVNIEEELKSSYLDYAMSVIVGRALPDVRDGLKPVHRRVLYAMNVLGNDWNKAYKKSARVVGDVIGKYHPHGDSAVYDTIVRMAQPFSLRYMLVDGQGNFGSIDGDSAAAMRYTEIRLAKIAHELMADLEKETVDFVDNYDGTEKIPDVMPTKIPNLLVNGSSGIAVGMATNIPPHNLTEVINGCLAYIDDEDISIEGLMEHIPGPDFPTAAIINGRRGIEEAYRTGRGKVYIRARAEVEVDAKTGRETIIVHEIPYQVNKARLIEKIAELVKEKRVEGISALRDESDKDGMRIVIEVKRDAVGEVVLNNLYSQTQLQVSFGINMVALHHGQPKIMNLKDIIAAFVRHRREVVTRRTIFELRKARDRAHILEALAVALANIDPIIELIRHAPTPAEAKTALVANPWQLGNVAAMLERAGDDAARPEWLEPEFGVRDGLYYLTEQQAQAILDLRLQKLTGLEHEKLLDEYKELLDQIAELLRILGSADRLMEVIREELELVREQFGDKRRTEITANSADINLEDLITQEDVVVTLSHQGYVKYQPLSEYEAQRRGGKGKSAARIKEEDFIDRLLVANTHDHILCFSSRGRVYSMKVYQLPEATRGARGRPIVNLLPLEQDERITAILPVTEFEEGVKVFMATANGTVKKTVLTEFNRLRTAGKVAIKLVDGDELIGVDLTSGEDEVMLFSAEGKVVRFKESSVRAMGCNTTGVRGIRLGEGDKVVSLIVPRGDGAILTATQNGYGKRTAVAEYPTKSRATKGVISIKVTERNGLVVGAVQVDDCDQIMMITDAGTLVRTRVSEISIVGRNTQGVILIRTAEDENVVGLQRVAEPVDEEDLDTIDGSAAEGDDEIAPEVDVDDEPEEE

Molecular target: T1, DNA gyrase (Escherichia coli, UniProt P0AES4+P0AES6)
T1 construct: His6 (N); made in house; host or cells: Escherichia coli Rosetta (DE3)
Test: Inhibition of DNA gyrase supercoiling of relaxed plasmid pBR322 (agarose gel electrophoresis)
Type: biochemical, E. coli
Description: The reaction mixture (30 µl) contained 35 mM Tris-HCl (pH 7.5), 24 mM KCl, 4 mM MgCl 2 , 1.4 mM ATP, 5 mM DTT, 1.8 mM spermidine, and 0.1 mg/ml of a bovine serum albumin. A mixture of DNA gyrase A and B subunits (0.4 µg) and 0.25–0.5 µg of the substrate (relaxed plasmid pBR322) were added to the reaction probe. The reaction was performed for 60 min at 25°C (for multiple samples, 96-well plates were used). After the reaction was completed, the samples were extracted with an equal volume of chloroform (30 µl). Then, 7 µl of the mixture containing […], 25% of glycerol, and 0.25% of bromphenol blue were added to the aqueous phase. The mixture was applied on a 1.2% agarose gel in TAE buffer (40 mM Tris-acetate, pH 8.0, 2 mM EDTA) and analyzed with electrophoresis (50 V, 2 h). The products were visualized under UV-light after staining with ethidium bromide. The activity of the enzyme (%) was determined from the intensity of the band corresponding to the super-coiled form of plasmid pBR322 and estimated using the Total Lab v2.01 software.
An equal volume of DMSO was added to the control. The reaction was started upon addition of DNA gyrase (0.4 µg) and relaxed plasmid pBR322 (0.25–0.5 µg), which was used as a substrate, and performed as described above. Calculations were made using the Total Lab v2.01 program.

CCn1cc(C(=O)O)c(=O)c2cc(F)c(N3CCN(C)CC3)cc21 [IOS-PEFL_02, pefloxacin, reference compound]
Inhibitory activity towards DNA gyrase, in words (qualitative statement): moderate activity | Activity towards DNA gyrase compared with that of levofloxacin (relative to levofloxacin, in words): significantly lower
